From PubChem BioAssay AID602346 (Broad Institute, 2012)
In all, about 340,000 compounds went through this assay and about 1,200 (0.35%) were called active. The inconclusive results got no clear call from the source; some entries with a clear call stand among them for comparison. No stated cut-off is given here; in the data, active means inhibition above about 50% (passing the limit was not always enough); inconclusive means no clear call, values can overlap the other calls; inactive means below about 31%. More than one record can exist for a structure, and the calls need not agree.

Test: blockers of Vif multimerization in cells – imaging, HEK293T, single point, primary screen (AID 602346)
Conditions: Vif self-association by quenched fluorescence, 24 h, at 7.49 µM, hits give high values

| SMILES | inhibition |
| --- | --- |
| CCn1c(SCc2ccc(C(=O)Nc3nccs3)cc2)nnc1-c1ccc(N)cc1 | active: 53.6% |
| O=[N+]([O-])c1ccc2nc(NS(=O)(=O)c3ccc(Cl)cc3)sc2c1 | inconclusive: 41.7% |
| COc1cc(/C=N/NC(=O)c2cccc(S(=O)(=O)N3CCCC3)c2)cc(OC)c1O | inconclusive: 24% |
| O=C(c1ccccc1Cl)N1CCc2ccccc2C1 | inconclusive: 30.3% |
| COc1cc(-c2nnc(COC(=O)c3cc(C)nc4ccc(C)cc34)o2)cc(OC)c1OC | inconclusive: 39.4% |
| C=CCN(c1ccccc1)S(=O)(=O)c1c(C)[nH]c(=O)[nH]c1=O | inconclusive: 41.4% |
| CC(=O)c1c(C)[nH]c(C(=O)COC(=O)COc2ccccc2F)c1C | inactive: 3.58% |
| COc1ccc([N+](=O)[O-])cc1NC(=O)C(C)c1ccccc1 (stereo unspecified) | inactive: -7.59% |
| CC(=O)Nc1cccc(NC(=O)c2cc(-c3ccccn3)nc3ccc(Cl)cc23)c1 | active: 69.8% |
| CC(=O)C1=C(C)NC(SCC(=O)c2ccc(Cl)cc2)=C(C#N)C1c1ccco1 (stereo unspecified) | active: 57.7% |
| COc1ccc(C2C3=C(CC(C)(C)CC3=O)Oc3ncn(CC(C)C)c(=N)c32)cc1 (stereo unspecified) | inconclusive: 36.3% |
| O=C(Nc1ccc2oc(-c3ccncc3)nc2c1)c1ccc(Br)o1 | inconclusive: 38.1% |
| CCOc1ccc(NC(=O)CN(C)C(=O)Cc2n[nH]c(=O)c3ccccc23)cc1OCC | inconclusive: 22.9% |
| COc1ccc(N2CCN(C(=O)c3ccc(NS(=O)(=O)c4cccc(F)c4)cc3)CC2)cc1 | inconclusive: 45.2% |
| O=C1c2ccccc2-c2cc(Br)ccc2NC1O (stereo unspecified) | inconclusive: 39.9% |
| COc1ccc(/C=C/C(=O)c2cc(F)ccc2OC(=O)c2ccccc2OC)cc1OC | active: 90.7% |
| CCOc1ccc(OCc2cccc(C(=O)N3CCCC3)c2)cc1 | active: 52.7% |
| CC1(C)OC1(C#N)c1ccccc1 (stereo unspecified) | inconclusive: 48.1% |
| Cc1c(N/C=C/C(=O)C(F)(F)F)c(=O)n(-c2ccccc2)n1C | inconclusive: 33.9% |

| SMILES | inhibition |
| --- | --- |
| COc1ccc(CC(=O)OCC(=O)NCc2ccc(Cl)cc2)cc1 | active: 80.1% |
| O=S(=O)(c1ccccc1)N1CCN(Cc2ccccc2)c2ccccc21 | inconclusive: 42.6% |
| CC1(C(=O)NS(=O)(=O)c2cccc(OC(F)F)c2)CCN1C(=O)c1ccco1 (stereo unspecified) | active: 58.5% |
| Cc1c(C(=O)OC(C)C)[nH]c2c1C(=O)CC(C)(C)C2 | inactive: -6.42% |
| O=C/C(=C\Nc1ccccn1)c1nc2cc(Cl)ccc2o1 | active: 61% |
| C=CC[C@H](CC(=O)NCCO)C(=O)N[C@H](COC(=O)[C@H](CC=C)CC(=O)OC(C)(C)C)Cc1c[nH]c2ccccc12 | inactive: -3.03% |
| COC(=O)C1=C(O)C2(C(=O)O)CC(C(=O)OC)=C(O)C(C(=O)O)(C1)C2 | inactive: -11% |
| O=C(O)c1cc(-c2ccc3ccccc3c2)nc2ccc(F)cc12 | inconclusive: 49.9% |
| Cc1ccc2c(c1)/C(=N/OS(=O)(=O)c1ccccc1)CCS2 | inconclusive: 26.2% |
| COc1ccnc(N=CNOCc2ccc(C)cc2)c1C#N | inconclusive: 39.2% |
| CCN=c1scc(-c2ccc3c(c2)NC(=O)CO3)n1N=C1CCCC1 | active: 53.8% |
| COc1ccccc1N(C)S(=O)(=O)c1ccc(C(=O)Nc2nccs2)cc1 | inactive: -17% |
| COc1cc(NC(=O)CN2C(=O)CN(C)C2=O)c(C)cc1[N+](=O)[O-] | inactive: -8.85% |
| CCC(=O)C(C#N)(c1ccc(OC)c(OC)c1)C(C)C (stereo unspecified) | inconclusive: 35.9% |
| O=C(Nc1ccc(Oc2ncnc3cc(Cl)ccc23)nc1)Nc1cccc(C(F)(F)F)c1 | inactive: -2.41% |
| COC(=O)c1nnn(CC(=O)NC(=O)Nc2cccc(C)c2C)c1C(=O)OC | inconclusive: 43.6% |
| N#CC(=Cc1cccs1)c1nc(-c2ccc(Cl)cc2)cs1 | inconclusive: 31.6% |
| Cc1ccc(C2OCC(C)([N+](=O)[O-])CO2)cc1 (stereo unspecified) | inconclusive: 36.5% |
| Cc1nc(NC(=O)CSc2nc3cccnc3n2Cc2ccccc2)sc1C | inconclusive: 43.9% |

At a glance, 5 of the compounds above.

| SMILES | inhibition |
| --- | --- |
| COc1cc(NC(=O)CN2C(=O)CN(C)C2=O)c(C)cc1[N+](=O)[O-] | inactive: -8.85% |
| CCC(=O)C(C#N)(c1ccc(OC)c(OC)c1)C(C)C (stereo unspecified) | inconclusive: 35.9% |
| O=C(Nc1ccc(Oc2ncnc3cc(Cl)ccc23)nc1)Nc1cccc(C(F)(F)F)c1 | inactive: -2.41% |
| COC(=O)c1nnn(CC(=O)NC(=O)Nc2cccc(C)c2C)c1C(=O)OC | inconclusive: 43.6% |
| N#CC(=Cc1cccs1)c1nc(-c2ccc(Cl)cc2)cs1 | inconclusive: 31.6% |

Remaining list, next part.

| SMILES | inhibition |
| --- | --- |
| O=C(NCCc1ccccc1)c1cc([N+](=O)[O-])ccc1N1CCOCC1 | inactive: -1.1% |
| CNc1c(NS(=O)(=O)c2ccc(Br)cc2)c(=O)oc2ccccc12 | inconclusive: 47.2% |
| c1ccc(N2CCN(c3ccccc3)C2c2ccncc2)cc1 | inconclusive: 44.6% |
| Cc1cccc(CN2CCC(C(=O)Nc3cccc(-c4cccc(F)c4)c3)CC2)n1 | inconclusive: 21.9% |
| CC(C)(C)c1ccc(C(=O)Nc2cccc(C(=O)N3CCOCC3)c2)cc1 | inactive: -2.34% |
| CCn1c(SCC(=O)c2ccccc2)nnc1-c1cccnc1 | inconclusive: 34.8% |
| O=C(c1ccc(Cn2cc(Br)cn2)cc1)N1CCN(c2ccccc2)CC1 | inconclusive: 46.6% |
| COC(=O)c1cc(Br)c(=O)n(CC(C)C)c1 | inconclusive: 30% |
| COc1ccc(CN2CCc3ccccc3C2)c(OC)c1OC | inconclusive: 27.5% |
| Cn1nc(-c2ccc(S(N)(=O)=O)s2)cc1C(F)(F)F | inactive: -4.34% |
| COCC(C)N=C1SCCN1Cc1ccccc1 (stereo unspecified) | inconclusive: 44.4% |
| COC(=O)c1c(NC(=O)CSc2nnc(CNc3ccc(Cl)cc3)o2)sc(C)c1C | active: 72.4% |
| Cc1cccc(CN2CCN(C3CN(Cc4cn(Cc5ccccc5F)nn4)S(=O)(=O)C3)CC2)c1 (stereo unspecified) | inconclusive: 32.9% |
| O=C(COc1ccc(Cl)cc1Cl)N1CCNC1=O | inconclusive: 21.3% |
| C#CCOCCOCCOCCNc1nc(N2CCN(C(=O)CCCCCCCCCCNC(=O)Cn3cc(CCCCCN)nn3)CC2)nc(N2CCN(C(=O)CCCCCCCCCCNC(=O)[C@H]([C@@H](C)CC)n3cc(CCCCN=C(N)N)nn3)CC2)n1 | active: 104% |
| COCCn1c(SCC(=O)Nc2ccccc2)nc2c1c(=O)[nH]c(=O)n2C | inconclusive: 47.7% |
| CC1CCC(NC(=O)N(CCCl)N=O)CC1 (stereo unspecified) | active: 58.9% |
| Cc1ccc(NS(=O)(=O)c2ccc3c(c2)NC(=O)C(C)C(=O)N3)c(Cl)c1 (stereo unspecified) | inconclusive: 41.6% |
